Laboratory results as given in the supplement of paper PMC4604168 (melanoma cell lines).
The list shows a part of the results. Many values rest on one well or one pass, so single values are uncertain.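 Cells were imaged in 1,536-well plates, and nuclei stained with an antibody against cleaved PARP were counted against all DNA-stained nuclei to give the apoptosis fraction. Screening doses were chosen to leave most cells alive, and resting and induced cleaved-PARP levels differ strongly between cell lines.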

Key:
Experiment in all cases: cleaved PARP positive nuclei fraction relative to DMSO control; melanoma cells; higher = more apoptosis
Conditions in all cases: library dose: low library concentration; 72 h
501Mel = test system: 501Mel
A101D = test system: A101D
A2058 = test system: A2058
A375 = test system: A375
C32 = test system: C32
CBRC013 = test system: CBRC013 (line from a melanoma biopsy)
CBRC014 = test system: CBRC014 (line from a melanoma biopsy)
CBRC016 = test system: CBRC016 (line from a melanoma biopsy)
CBRC017 = test system: CBRC017 (line from a melanoma biopsy)
CBRC034 = test system: CBRC034 (line from a melanoma biopsy)
COLO792 = test system: COLO792
COLO800 = test system: COLO800
COLO829 = test system: COLO829
G361 = test system: G361
IPC-298 = test system: IPC-298
IST-MEL1 = test system: IST-MEL1
LB2518-MEL = test system: LB2518-MEL
LOXIMVI = test system: LOXIMVI

SMILES | cleaved PARP positive nuclei fraction (501Mel) [%] | cleaved PARP positive nuclei fraction (A101D) [%] | cleaved PARP positive nuclei fraction (A2058) [%] | cleaved PARP positive nuclei fraction (A375) [%] | cleaved PARP positive nuclei fraction (C32) [%] | cleaved PARP positive nuclei fraction (CBRC013) [%] | cleaved PARP positive nuclei fraction (CBRC014) [%] | cleaved PARP positive nuclei fraction (CBRC016) [%] | cleaved PARP positive nuclei fraction (CBRC017) [%] | cleaved PARP positive nuclei fraction (CBRC034) [%] | cleaved PARP positive nuclei fraction (COLO792) [%] | cleaved PARP positive nuclei fraction (COLO800) [%] | cleaved PARP positive nuclei fraction (COLO829) [%] | cleaved PARP positive nuclei fraction (G361) [%] | cleaved PARP positive nuclei fraction (IPC-298) [%] | cleaved PARP positive nuclei fraction (IST-MEL1) [%] | cleaved PARP positive nuclei fraction (LB2518-MEL) [%] | cleaved PARP positive nuclei fraction (LOXIMVI) [%]
O=C(CCCCCCC(=O)Nc1ccccc1)NO [vorinostat] + COc1cc2ncnc(Nc3ccc(Oc4ccccc4)cc3)c2cc1OC [SrcI1] (first compound 0.08 µM, partner dose 2 µM) | 84.5 | 39.6 | 94.8 | 15.3 | 75.4 | 64.2 | 80.1 | 61.2 | 114 | 92 | 87.4 | 26.8 | 69.7 | 75.5 | 55.5 | 44.7 | 62.9 | 78.3
C=CCn1c(=O)c2cnc(Nc3ccc(N4CCN(C)CC4)cc3)nc2n1-c1cccc(C(C)(C)O)n1 + N#Cc1c(O)c2c(-c3ccc(-c4ccccc4O)cc3)csc2[nH]c1=O [A769662] (first compound 0.02 µM, partner dose 2 µM) | 76.6 | 64.7 | 133 | 128 | 108 | 481 | 111 | 38.1 | 95.5 | 116 | 158 | 97.5 | 100 | 121 | 68.5 | 174 | 95.7 | 70
Cn1cncc1[C@@](N)(c1ccc(Cl)cc1)c1ccc2c(c1)c(-c1cccc(Cl)c1)cc(=O)n2C [tipifarnib] + CCN(CC)CCCCNc1ncc2cc(-c3cc(OC)cc(OC)c3)c(NC(=O)NC(C)(C)C)nc2n1 [PD173074] (first compound 0.01 µM, partner dose 0.1 µM) | 140 | 236 | 105 | 44.9 | 62.4 | 506 | 103 | 92 | 77.7 | 90.5 | 46.2 | 142 | 94.2 | 115 | 54.4 | 46.4 | 236 | 42.5
CO[C@@H]1[C@H](N(C)C(=O)c2ccccc2)C[C@H]2O[C@]1(C)n1c3ccccc3c3c4c(c5c6ccccc6n2c5c31)C(=O)NC4 [Midostaurin] + Oc1cc(-c2nc(-c3ccccc3)[nH]c2-c2ccncc2)ccc1Cl [L779450] (first compound 0.08 µM, partner dose 0.2 µM) | 113 | 284 | 65.4 | 130 | 145 | 53.9 | 103 | 25.2 | 101 | 89.9 | 119 | 83.1 | 87.2 | 57 | 105 | 72.3 | 119 | 41
NC(=O)Nc1cc(-c2cccc(F)c2)sc1C(=O)N[C@H]1CCCNC1 + COc1ccc(COc2ccc(Cc3cnc(N)nc3N)cc2OC)cc1 [GW2580] (first compound 0.02 µM, partner dose 1 µM) | 164 | 48.9 | 154 | 4770 | 43.6 | 60.1 | 98.8 | 117 | 86.7 | 155 | 178 | 151 | 87.3 | 64.9 | 188 | 82.2 | 124 | 36.9
OCCn1cc(-c2cnc3nnn(Cc4ccc5ncccc5c4)c3n2)cn1 + Cn1cc(/C=C2\C(=O)Nc3cccnc32)c2ccccc21 [GW441756] (first compound 1 µM, partner dose 0.4 µM) | 79.4 | 52.3 | 48.5 | 99.9 | 131 | 91.9 | 93.1 | 107 | 88.6 | 171 | 79.8 | 71.4 | 84.5 | 74.5 | 42.6 | 41.6 | 90.1 | 81.7
COCC[n+]1c2c(n(Cc3cnccn3)c1C)C(=O)c1ccccc1C2=O + c1cc(-c2cnn3cc(-c4ccc(OCCN5CCCCC5)cc4)cnc23)ccn1 [Dorsomorphin] (first compound 0.0004 µM, partner dose 0.4 µM) | 143 | 118 | 818 | 577 | 207 | 121 | 110 | 40.1 | 91.1 | 93.6 | 66.8 | 185 | 154 | 106 | 64.8 | 220 | 225 | 41.7
Cn1nnc2c(C(N)=O)ncn2c1=O [temozolomide] + O=C(O)C(=O)Nc1sc2c(c1C(=O)O)CCNC2 [TCS401] (first compound 2 µM, partner dose 1.66667 µM) | 74.7 | 101 | 112 | 122 | 84 | 38.4 | 99.4 | 14.6 | 67 | 138 | 68.8 | 47.8 | 132 | 121 | 47.7 | 58.8 | 76.8 | 84.4

Record cards, as listed above. Values in the order: cleaved PARP positive nuclei fraction (501Mel) [%]	cleaved PARP positive nuclei fraction (A101D) [%]	cleaved PARP positive nuclei fraction (A2058) [%]	cleaved PARP positive nuclei fraction (A375) [%]	cleaved PARP positive nuclei fraction (C32) [%]	cleaved PARP positive nuclei fraction (CBRC013) [%]	cleaved PARP positive nuclei fraction (CBRC014) [%]	cleaved PARP positive nuclei fraction (CBRC016) [%]	cleaved PARP positive nuclei fraction (CBRC017) [%]	cleaved PARP positive nuclei fraction (CBRC034) [%]	cleaved PARP positive nuclei fraction (COLO792) [%]	cleaved PARP positive nuclei fraction (COLO800) [%]	cleaved PARP positive nuclei fraction (COLO829) [%]	cleaved PARP positive nuclei fraction (G361) [%]	cleaved PARP positive nuclei fraction (IPC-298) [%]	cleaved PARP positive nuclei fraction (IST-MEL1) [%]	cleaved PARP positive nuclei fraction (LB2518-MEL) [%]	cleaved PARP positive nuclei fraction (LOXIMVI) [%]
COCC[n+]1c2c(n(Cc3cnccn3)c1C)C(=O)c1ccccc1C2=O + c1cc(-c2cnn3cc(-c4ccc(OCCN5CCCCC5)cc4)cnc23)ccn1 [Dorsomorphin] (first compound 0.0004 µM, partner dose 0.4 µM) reads 143	118	818	577	207	121	110	40.1	91.1	93.6	66.8	185	154	106	64.8	220	225	41.7
Cn1cncc1[C@@](N)(c1ccc(Cl)cc1)c1ccc2c(c1)c(-c1cccc(Cl)c1)cc(=O)n2C [tipifarnib] + CCN(CC)CCCCNc1ncc2cc(-c3cc(OC)cc(OC)c3)c(NC(=O)NC(C)(C)C)nc2n1 [PD173074] (first compound 0.01 µM, partner dose 0.1 µM) reads 140	236	105	44.9	62.4	506	103	92	77.7	90.5	46.2	142	94.2	115	54.4	46.4	236	42.5
